What was measured:
CCR1 = CCR1 (Homo sapiens, UniProt P32246); settings: at plasma concentrations above 100 ng /mL
[1] = cited from earlier work

Protein sequences, listed by entry. Tags and fused reporters are not part of them. Lines headed by an entry give the natural chain unless they say otherwise; changes in a name come on top.
UniProt P32246: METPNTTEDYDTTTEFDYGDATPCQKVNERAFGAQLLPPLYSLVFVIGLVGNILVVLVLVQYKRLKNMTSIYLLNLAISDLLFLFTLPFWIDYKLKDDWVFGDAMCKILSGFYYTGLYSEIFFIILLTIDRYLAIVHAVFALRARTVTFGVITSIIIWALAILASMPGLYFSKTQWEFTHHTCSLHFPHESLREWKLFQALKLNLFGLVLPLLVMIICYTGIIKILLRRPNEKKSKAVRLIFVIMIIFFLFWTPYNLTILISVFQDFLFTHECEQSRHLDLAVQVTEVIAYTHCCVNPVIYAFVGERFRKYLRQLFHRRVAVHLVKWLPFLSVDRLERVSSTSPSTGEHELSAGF

SMILES: C[C@@H]1CN(Cc2ccc(F)cc2)CCN1C(=O)COc1ccc(Cl)cc1NC(N)=O [BAY 86-5277, N-[5-chloro-2-[2-[(2R)-4-[(4-fluorophenyl)methyl]-2-methyl-1-piperazinyl]-2-oxoethoxy]phenyl]-urea]
- mean trough CCR1 blockade (CCR1): at least 90%
- most common adverse events ([1]; ER formulation three times per day over 7 days, each 600 mg up to 1200 mg): gastrointestinal adverse events including nausea, diarrhea and vomiting
- safety with respect to vital signs, ECG and safety laboratory parameters ([1]; single dose i.v. and oral liquid formulation, IR and ER tablets, all doses tested, healthy volunteers): found safe
